Data: PubChem BioAssay AID445 (National Center for Advancing Translational Sciences (NCATS), 2006)
The other results are listed elsewhere or left out. These are further read-outs of the screen, such as a control signal, another cell line or another target. No call is given for them. Compounds called inactive in the main read-out are mostly missing here. Potencies come from curve fits of mixed quality, noted in brackets.

Assay: IkB Signaling
Settings: ABC-DLBCL IkBa-CBG/CBR dual luciferase ratio (green luciferase fused to IkBa over red control in OCI-Ly3 lymphoma cells), 4 h
Outline: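 In this assay, an IκBα–CBG68 fusion accumulates when IKK-driven degradation is blocked; native CBR normalizes for cell number. OCI-Ly3 cells were treated 4 h with compound and doxycycline, then green and red light read after Chroma-Glo addition.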

[1] = measured here: control luc red channel unless noted

## CC1=C(C(=O)N2CCN(c3cc(C)ccc3C)CC2)C2(CCC(C)CC2)OC1=O (configuration not stated)
[1]
  AC50: 39.8 µM [falling, single point]

## COc1ccc(C(=O)Nc2nc3nc(C)c(Cc4ccccc4)c(=O)n3[nH]2)cc1OC
[1]
  AC50: 25.1 µM [falling, single point]

## CCCc1cc(=O)n2[nH]c(NC(=O)c3ccc(C(C)(C)C)cc3)nc2n1
[1]
  AC50: 25.1 µM [falling, partial curve]

## O=C(Nc1cccc(F)c1)C1CCCN1S(=O)(=O)c1cccc2cccnc12 (configuration not stated)
[1]
  AC50: 5.01 µM [falling, partial curve]

## Cc1cccc(CNS(=O)(=O)c2ccc(-c3cnc(C4CC4)o3)cc2)c1
[1]
  AC50: 20 µM [falling, partial curve]

## O=C(O)c1oc2ccc(Br)cc2c1-n1cccc1
[1]
  AC50: 25.1 µM [falling, partial curve]

## Cc1cccc(-c2noc(-c3ccccc3NC(=O)C3CC(=O)N(c4ccccc4C)C3)n2)c1 (configuration not stated)
[1]
  AC50: 7.94 µM [rising, full curve]

## COc1ccc(S(=O)(=O)Nc2cccc(-c3ccc(N4CCC(C)CC4)nn3)c2)cc1OC
[1]
  AC50: 0.2 µM [falling, full curve]

## Cn1ccc2cc(S(=O)(=O)N3CCCC(C(=O)NCc4ccccc4)C3)ccc21 (configuration not stated)
[1]
  AC50: 12.6 µM [falling, partial curve]

## CCn1c(=O)c2cc(C(=O)Nc3cc(OC)c(OC)c(OC)c3)sc2c2ccccc21
[1]
  AC50: 12.6 µM [falling, partial curve]

## N#Cc1nc(Cc2ccccc2)oc1NCc1ccccc1Cl
[1]
  AC50: 20 µM [falling, partial curve]

## Cc1ccc(Nc2nnc(-c3ccc(C)c(S(=O)(=O)N4CCOCC4)c3)c3ccccc23)c(C)c1
[1]
  AC50: 6.31 µM [falling, single point]

## CCC(Cc1ccccc1)NC(=O)Cn1ncc2c3ccccc3n(Cc3ccccc3)c2c1=O (configuration not stated)
[1]
  AC50: 7.94 µM [falling, partial curve]

## Cc1oc(-c2ccc(Cl)cc2)nc1CN1CCC(C(=O)NCCCN2CCN(c3cccc(Cl)c3)CC2)CC1
[1]
  AC50: 25.1 µM [falling, partial curve]

## Cc1ccc2c(c1)NC(=O)C(CC(=O)Nc1ccccc1Cl)O2 (configuration not stated)
[1]
  AC50: 2 µM [rising, full curve]

## Cc1ccc(-c2nc3nc4ccccc4nc3n2Cc2ccco2)cc1
[1]
  AC50: 2.51 µM [falling, full curve]

## Cc1ccc(-n2ncc3c(NCCCn4ccnc4)ncnc32)cc1Cl
[1]
  AC50: 25.1 µM [falling, partial curve]

## COC(=O)c1cnc(NCc2ccc(F)cc2)c2ccccc12
[1]
  AC50: 39.8 µM [falling, single point]

## Cc1cc(F)ccc1S(=O)(=O)Nc1ccc2c(c1)CCCN2C(=O)c1cccs1
[1]
  AC50: 39.8 µM [falling, partial curve]

## COc1ccc(N2C(=O)C(CC(=O)Nc3ccc(F)cc3)N(Cc3ccc4c(c3)OCO4)C2=O)cc1 (configuration not stated)
[1]
  AC50: 25.1 µM [falling, partial curve]

## CCN(CC)C(=O)Cn1c(=O)nc(-c2ccccc2F)c2cc(Cl)ccc21
[1]
  AC50: 3.98 µM [falling, partial curve]

## CCCNC(=O)N1[C@H](c2ccc(C)s2)[C@@H](C)C(=O)[C@@H](C)[C@@H]1c1ccc(C)s1
[1]
  AC50: 0.1 µM [rising, full curve, poor fit]

## COc1ccc(-n2c(=O)c3sc4ccccc4c3n(CC(=O)Nc3ccccc3F)c2=O)cc1
Measured here: IkB-luc green channel
  AC50: 39.8 µM [rising, single point]
Measured here: control luc red channel
  AC50: 5.01 µM [rising, full curve]

## O=C(CSc1nnc(-c2cc3ccccc3cc2O)n1Cc1ccco1)c1ccc(F)cc1
[1]
  AC50: 15.8 µM [falling, partial curve]

## COc1cccc(NC(=O)CSc2nc3ccccc3n2C)c1
[1]
  AC50: 25.1 µM [falling, single point]

## CCN(CC)c1ccc2cc(NC(=O)CCC(=O)O)c(=O)oc2c1
[1]
  AC50: 0.251 µM [falling, full curve]

## COc1ccc(OC)c(CCNC(=O)c2c(C)nn(-c3ccc(F)cc3)c2-n2cccc2)c1
[1]
  AC50: 25.1 µM [falling, partial curve]

## Cc1nnc(N2CCC(C(=O)NC3CCCCC3)CC2)c2nn(-c3ccc(Cl)cc3)c(C)c12
[1]
  AC50: 15.8 µM [falling, single point]

## COc1ccc(C)cc1Nc1nc2cc(Cl)c(Cl)cc2nc1-n1nc(C)cc1C
[1]
  AC50: 2.51 µM [falling, partial curve]

## C=Cc1ccc(CN2C(=O)N(c3ccc(CC)cc3)S(=O)(=O)c3ccccc32)cc1
[1]
  AC50: 0.0631 µM [rising, full curve, poor fit]

## COc1ccc(C)cc1NC(=O)CSc1nc(=O)n(Cc2ccncc2)c2c1CCC2
[1]
  AC50: 25.1 µM [falling, partial curve]

## COc1ccc(C)cc1NC(=O)NCc1ccc2c(c1)CCN2C(=O)c1ccccc1
[1]
  AC50: 12.6 µM [falling, partial curve]

## COc1ccc(C(=O)NCCc2sc(-c3ccc(Cl)cc3)nc2C)c(OC)c1
[1]
  AC50: 31.6 µM [falling, single point]

## Cc1ccc(C)c(CN2C(=O)c3ccccc3S(=O)(=O)c3ccc(C(=O)N4CCN(c5ccccn5)CC4)cc32)c1
[1]
  AC50: 1 µM [falling, partial curve]

## CCc1cccc(N2C(=O)N(CC(=O)NCc3cccc(OC)c3OC)c3ccccc3S2(=O)=O)c1
[1]
  AC50: 39.8 µM [falling, single point]

## COCCNC(=O)c1ccc(CSc2nc3ccncc3n2Cc2ccccc2)cc1
[1]
  AC50: 12.6 µM [falling, partial curve]

## COc1ccc(S(=O)(=O)NCC(c2ccco2)N2CCOCC2)cc1C (configuration not stated)
[1]
  AC50: 6.31 µM [rising, single point]

## COc1ccc2nc(NC(=O)C3CCCN3S(=O)(=O)c3ccc(C)cc3)sc2c1 (configuration not stated)
[1]
  AC50: 15.8 µM [falling, partial curve]

## COc1cccc(NC(=O)Cn2c(=O)n(-c3ccc(Cl)cc3)c(=O)c3sc4ccccc4c32)c1
[1]
  AC50: 3.98 µM [falling, partial curve]

## CCOc1ccc(/C=C/c2nc3ccccc3n2S(=O)(=O)c2ccc(Br)cc2)cc1
[1]
  AC50: 15.8 µM [falling, partial curve]

## O=C(Cn1c(=O)nc(-c2ccccc2)c2cc(Cl)ccc21)NCCc1ccc(Cl)cc1
[1]
  AC50: 20 µM [falling, partial curve]

## COC(=O)c1c(NC(=O)c2ccc(Br)s2)sc2c1CCC2
[1]
  AC50: 0.158 µM [falling, full curve]

## CCC(=O)Nc1ccc(NC(=O)c2cccc(OC)c2)nc1
[1]
  AC50: 12.6 µM [falling, partial curve]

## CCc1ccc(NCc2cccn2-c2nnc(N3CCCCCC3)s2)cc1
[1]
  AC50: 25.1 µM [falling, single point]

## CCc1ccc(-c2[nH]nc3nc(-c4ccc(OC)cc4)cc(C(=O)NCCc4ccc(OC)c(OC)c4)c23)cc1
[1]
  AC50: 2.51 µM [rising, partial curve]

## COc1ccc(OC)c(-c2cc(C(=O)Nc3cnn(Cc4ccc(Cl)cc4Cl)c3)no2)c1
[1]
  AC50: 20 µM [falling, single point]

## COc1ccc2nc(NC(=O)c3cc(=O)c4ccccc4o3)sc2c1
[1]
  AC50: 7.94 µM [falling, partial curve]

## Cc1c(C(=O)Nc2ccncc2)sc2nc(-c3ccc(F)cc3)cn12
[1]
  AC50: 10 µM [rising, partial curve] [measured here: IkB-luc green channel]

## COc1cc(C(=O)Nc2cc(-c3nc4cc(C)ccc4o3)ccc2C)cc(OC)c1OC
[1]
  AC50: 1 µM [falling, full curve, poor fit]

## O=C(NCc1nc2cccnc2n1Cc1ccc(F)cc1)c1ccccc1C(F)(F)F
[1]
  AC50: 0.501 µM [rising, full curve]

## Cc1ccccc1CN1C(=O)c2ccccc2Sc2ccc(C(=O)NCc3cccs3)cc21
[1]
  AC50: 20 µM [falling, partial curve]

## Cc1onc(-c2ccccc2Cl)c1C(=O)N1CCN(C/C=C/c2ccccc2)CC1
[1]
  AC50: 10 µM [falling, partial curve]

## O=C(Oc1cccc(NC(=O)c2ccco2)c1)c1cccc(S(=O)(=O)N2CCCC2)c1
[1]
  AC50: 15.8 µM [falling, partial curve]

## COc1ccc(NC(=O)CSc2nc(-c3ccco3)cc(C(F)(F)F)n2)cc1
[1]
  AC50: 2.51 µM [rising, full curve]

## CCCn1c(=O)c2[nH]c(-c3ccc(OCC(=O)Nc4ccc(C#N)cc4)cc3)nc2n(CCC)c1=O
[1]
  AC50: 3.98 µM [falling, partial curve, poor fit] [measured here: IkB-luc green channel]

## CCC(C)NC(=O)c1ccc2c(=O)n3c(nc2c1)CCCCC3 (configuration not stated)
[1]
  AC50: 6.31 µM [rising, partial curve]

## COc1cc(C2c3c(-c4ccccc4)n[nH]c3C(=O)N2c2ccccc2)ccc1O (configuration not stated)
[1]
  AC50: 5.01 µM [falling, partial curve]

## CSc1cccc(Nc2cc(C(=O)NCCCN(C)c3ccccc3)c3ccccc3n2)c1
[1]
  AC50: 0.251 µM [falling, partial curve, poor fit]

## COc1ccc(/C=C/C(=O)Nc2nc3n(n2)C(c2ccc(F)cc2)C=C(c2ccccc2)N3)cc1 (configuration not stated)
[1]
  AC50: 20 µM [falling, single point]

## COc1ccc(NC(=O)C2C(=O)NC3(C)CC2c2ccccc2O3)cc1 (configuration not stated)
[1]
  AC50: 15.8 µM [falling, partial curve]

## COc1ccc(NC(=O)C2CCCN(S(=O)(=O)c3ccc(Br)s3)C2)cc1 (configuration not stated)
[1]
  AC50: 20 µM [falling, partial curve]
